Source: ChEMBL document CHEMBL3797118, “New Colchicine-Derived Triazoles and Their Influence on Cytotoxicity and Microtubule Morphology” (ACS Med Chem Lett, 2016)

Test system: Jurkat
Experiment: Cytotoxicity against human Jurkat cells after 48 hrs by Celltiter-Glo luminescent cell viability assay
Assay type: functional, cell-based

SMILES: COc1cc2c(c(OC)c1OC)-c1ccc(OC)c(=O)cc1[C@@H](NC(C)=O)CC2 [COLCHICINE]
- IC50: 13.5 nM
